Here are results for 1 molecule from article doi:10.1101/2022.11.30.518502.

Sequences of proteins named here, by UniProt entry; tags and fusion partners are left off. A change or cut given only in a name is not applied to a line headed by its entry. A line that says so, or that is headed by a name, gives the form on record, which may keep a tag or linker.
Myc-Tau^WT (P10636, form named): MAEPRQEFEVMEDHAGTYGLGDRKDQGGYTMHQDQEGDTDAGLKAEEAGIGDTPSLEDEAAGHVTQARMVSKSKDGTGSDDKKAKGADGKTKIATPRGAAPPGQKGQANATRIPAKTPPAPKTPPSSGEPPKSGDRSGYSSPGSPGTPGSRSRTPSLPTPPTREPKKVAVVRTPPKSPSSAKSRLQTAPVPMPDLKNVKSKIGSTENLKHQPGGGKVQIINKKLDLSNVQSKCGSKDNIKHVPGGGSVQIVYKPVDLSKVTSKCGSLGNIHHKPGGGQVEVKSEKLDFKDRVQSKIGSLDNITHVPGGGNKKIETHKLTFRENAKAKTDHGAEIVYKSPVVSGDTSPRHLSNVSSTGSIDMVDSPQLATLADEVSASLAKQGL

This assay has as its target Myc-Tau^WT (human) (UniProt P10636). In words: co-IP.

These are yes or no findings as the source states them, for the method shown. Binding seen in cells or lysates may run through a third protein.

B1: TOM40 (protein, UniProt O96008 1-361)
chain: MGNVLAASSPPAGPPPPPAPALVGLPPPPPSPPGFTLPPLGGSLGAGTSTSRSSERTPGAATASASGAAEDGACGCLPNPGTFEECHRKCKELFPIQMEGVKLTVNKGLSNHFQVNHTVALSTIGESNYHFGVTYVGTKQLSPTEAFPVLVGDMDNSGSLNAQVIHQLGPGLRSKMAIQTQQSKFVNWQVDGEYRGSDFTAAVTLGNPDVLVGSGILVAHYLQSITPCLALGGELVYHRRPGEEGTVMSLAGKYTLNNWLATVTLGQAGMHATYYHKASDQLQVGVEFEASTRMQDTSVSFGYQLDLPKANLLFKGSVDSNWIVGATLEKKLPPLPLTLALGAFLNHRKNKFQCGFGLTIG
As for B1, the binding result is on record as “no binding”.
